According to PubChem BioAssay AID1347426 (Functional Genomics Laboratory (NCATS/FGL), 2020):
Out of some 31,000 sequences screened, about 1,400 (4.5%) were called active.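 Rule for the calls: active = median seed-adjusted z-score above 1 or below -1; inactive = the rest.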 Some of the results follow.

Assay: Novel Modifiers of Survival Motor Neuron (SMN) Protein: Gene Identification via Genome-wide siRNA Screen;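 note: luminescence tracks full-length SMN protein made from the SMN2 reporter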
Details: HEK293T SMN2-luciferase reporter, siRNA knockdown, 72 h; actives lie on both sides
In short: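 Each of three siRNAs per gene is reverse-transfected (1 pmol) into reporter HEK293T cells whose luciferase output tracks SMN protein level. After 72 h culture, ONE-Glo luminescence is control-normalized, log10-transformed and MAD-standardized; Common Seed Analysis deprioritizes seed-driven hits.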

| Sequence | median seed-adjusted z-score |
| --- | --- |
| CCAUAUCCGAUGUAAAAUUTT against PPP2R2D | inactive: -0.118 |
| CAGCUACCAUAGUUGCUAUTT against PCDH15 | inactive: -0.712 |
| GGACAACUAGGGCUGCGAATT against CCR10 | inactive: -0.129 |
| CCAAGUCCCAUACAACAAATT against C1S | inactive: -0.561 |
| ACAGAUCCAUUUUUAGGGATT against PKIG | inactive: 0.0916 |
| GGAUCAUGUGGUACUUAUUTT against SLC6A19 | inactive: 0.478 |
| CUCUUUCAAGUAUGAGACATT against INHA | inactive: 0.231 |
| GGUUCAGCAUAGUCCCAUATT against ENTPD1 | inactive: 0.567 |
| GAAGCACUUCUGUCCCAAUTT against RHOB | inactive: -0.776 |
| CGAUGGACAGUGUCUCUUATT against ALG6 | inactive: 0.106 |
| CCGCCUUUCAAGAACGUAATT against IARS | inactive: -0.198 |
| CGACGAGCACCAUUAGGAATT against EFHB | inactive: 0.675 |
| GCUUCGGAAUUCAGACAUUTT against NFATC4 | inactive: 0 |
| CAAAUGGGACUGUCAAUUATT against REPS2 | inactive: 0.454 |
| GCUAAACACUAUUAUUCUATT against LRP2BP | inactive: -0.547 |
| GACAGACCACAAAAAGGAATT against MICAL1 | inactive: 0.31 |
| GCAUCGAAAGGCACAUCAATT against ZDHHC16 | inactive: 0.0194 |
| CCUCAACUCGUGAAGAAGATT against GPRC5A | inactive: -0.56 |
| GGAAGGACCUCUAUGCUAATT against ACTA2 | inactive: 0.739 |
| GGCUUUGCAUCGGAAAUCATT against BCKDHB | inactive: 0.366 |
| GCUCAUUCCUUCUACAAUUTT against CACNA1G | inactive: 0.436 |
| CGCUGAAAAUUCCUAUGUUTT against AP3D1 | inactive: 0.213 |

A second format for some results above:
Sequence	median seed-adjusted z-score
GGAUCAUGUGGUACUUAUUTT against SLC6A19	inactive: 0.478
GGUUCAGCAUAGUCCCAUATT against ENTPD1	inactive: 0.567
GGAAGGACCUCUAUGCUAATT against ACTA2	inactive: 0.739

(list continues)

| Sequence | median seed-adjusted z-score |
| --- | --- |
| GCAGUGCUCGGCAAUUUCATT against SLC2A6 | inactive: 0.616 |
| GGCAAGUAGAUAGUACAUUTT against ZNF507 | inactive: -0.262 |
| GACGGAUCCUUGACACUUUTT against ARSE | inactive: 0.705 |
| GCGAAAUUUUGGAUAUCAATT against KIF23 | inactive: -0.449 |
| CCAUUGAAGAGAACGUAUATT against HAVCR2 | inactive: 0.205 |
| GGAAGAGUGGGUUCCAAGATT against SPHK1 | inactive: -0.249 |
| AGACUGUUCUAGAUAAAUUTT against FBXO27 | inactive: -0.286 |
| GAACAGCUCACACUACCAATT against MUC5B | inactive: 0.141 |
| CAAUUGAGGAUGCUAUAAATT against XDH | inactive: 0.806 |
| CGCUUCUACUACUUCCUAUTT against GPR152 | inactive: -0.9 |
| GGACCACAGACAUAGUAGATT against NCOA5 | inactive: 0.947 |
| GGUCCGUUGUCCAUCACAATT against UBAC2 | inactive: 0.611 |
| GCCUCACAGGGAUCUUGAATT against PLUNC | inactive: 0.254 |
| GCUCGGUAUUGAGGAAGUATT against NLN | inactive: 0.248 |
| GGAGCUCUCUUUACGAGAATT against SHROOM3 | inactive: 0.779 |
| AGCUUUUCUUGAGAGCUCATT against YY2 | inactive: 0.363 |
| GCAUAUUUCAGUUUGUGUATT against SSX5 | inactive: -0.0517 |
| GACACUCACUGCUAAGUUUTT against KIF21B | inactive: 0.934 |
| GUAUCUAAGAAAUUGAAAATT against ZNF575 | inactive: 0.458 |
| CUCUUAUAGUUGAUCGUGATT against ATAD2B | inactive: 0.0192 |
| GGCUUGAACCUUCAAAGCUTT against GATA1 | inactive: 0.371 |
| GCUCCUGUUUUAUACUGCUTT against TIPARP | inactive: 0.372 |

| Sequence | median seed-adjusted z-score |
| --- | --- |
| AGAUGGUAGUAGAGAAGCATT against WNT3 | inactive: -0.839 |
| CAACUACUCCGAGGCAGAATT against EPN3 | inactive: 0.184 |
| GCAAGAUCAUGGUUCUGGUTT against GRIN2C | inactive: -0.3 |
| CGUUUUGCCUCUCCAAAAATT against MSC | inactive: -0.208 |
| CGCAAUAACUGUUUGGUAUTT against EGLN1 | active: 2.05 |
| GGAGAAGGAUGGAACUCUUTT against SPATA21 | active: -1.03 |
| AGAAGGACGUGUCCAAGGATT against FOXC2 | inactive: -0.792 |
| GAUUGUCUUUGUCAUCUCATT against CLDN6 | inactive: -0.281 |
| GUACCAGACUUACACGGUUTT against MCF2L | inactive: -0.624 |
| AGAGCUUGUUGGACCUGAATT against KLF9 | inactive: 0.767 |
| GCUCCUAUCAACCCAAGUATT against WISP1 | inactive: -0.0121 |
| GAACGAUGAGGAGAACGAATT against PPWD1 | inactive: -0.341 |
| GUAACCAAGCGAUACAGAUTT against RAE1 | inactive: 0.929 |
| GGUCCGAUGUUACGUCUAATT against TIGD4 | inactive: -0.553 |
| GAAUGCUACAGUCAAGUUUTT against CDC5L | inactive: -0.628 |
| UGACACCAGCCAAAGCGGATT against ZXDA | inactive: -0.0748 |
| AGGUCUGCAUUGUACAGAATT against STK32A | inactive: 0.052 |
| CAACUUCCGUAAUUAGGAATT against MCL1 | inactive: 0.225 |
| GAGGUAACAUAUUCCCGAATT against BRF2 | inactive: -0.00969 |
| GAGUCCACGUGUACUAUUUTT against SULT1E1 | inactive: 0.509 |
| GGACCAGCGCAAUACACUATT against PLCD1 | inactive: -0.0473 |
| GAUUCAAGGAAGUCACUAATT against TBX19 | inactive: 0.327 |

| Sequence | median seed-adjusted z-score |
| --- | --- |
| GAGCUGGAAGUAUCCGAAATT against PARN | inactive: -0.0061 |
| GCUACUACUUUGAUUACAATT against PSMD8 | inactive: 0.0952 |
| GCAAAAUUGAGAACCACGATT against PKLR | inactive: 0.587 |
| GCUUCCUCCUAUAUACUAATT against PNLIP | inactive: 0.385 |
| GCACUUUCGUUUCAUCAUATT against TAF6L | inactive: 0 |
| GUGCAAUGGUUAACCCUAUTT against UBR3 | inactive: -0.894 |
| GCAGGGUAUUUGUAAAGAUTT against BCL11A | inactive: 0.297 |
| CAGCACUAUUAGACAGGAATT against ZBTB40 | inactive: 0.187 |
| GAAGAGCAGUGUACCAUCATT against STARD8 | inactive: -0.135 |
| GAAUAUGCCUUGAUAGUUATT against ZFP36L2 | inactive: -0.0485 |
| GACCAGAUGUGGAUGUAAATT against MIB1 | inactive: 0 |
| GCGGUUACAUGGGACUGGATT against RBPJL | inactive: 0.373 |
| GAACUGAUAUCUGAAGAGATT against MLPH | active: -1.2 |
| GACCAGGUGUUUGUCCUGATT against ARHGDIG | inactive: 0.227 |
| GAGUAUAGUUUGACUGUAATT against PCDH18 | inactive: -0.132 |
| AGAUGAAACUUCUACUGAATT against POLR2H | active: -2.74 |
| GGCUCAAUGUGGACUACAATT against HS3ST1 | active: 1.21 |
| CCAGCUAUUUGGUGAUGUUTT against LIMS1 | inactive: -0.313 |
| GGCUCUUCUAAGUUCCCGATT against PPP1R15B | inactive: -0.407 |
| GGAAUAGACUCCUUCGUGATT against PRTN3 | inactive: -0.49 |
| CAGAGAUCCCGGUACAUGATT against SEC24C | inactive: 0.163 |
| GCACUGGACUUCAAGCGAATT against PTH1R | inactive: -0.521 |

Two neighbouring records from above:

| Sequence | median seed-adjusted z-score |
| --- | --- |
| GAACUGAUAUCUGAAGAGATT against MLPH | active: -1.2 |
| GACCAGGUGUUUGUCCUGATT against ARHGDIG | inactive: 0.227 |

Remaining list, next part.

| Sequence | median seed-adjusted z-score |
| --- | --- |
| CGUCCCUGCUCAAAACCAATT against RNF39 | inactive: 0.297 |
| CCAAUAAGCUCAUACAUCUTT against OMD | inactive: 0 |
| CACUCUUUGUGGACCACUATT against SLC30A5 | inactive: 0.401 |
| GCAUAGACUUCAGCAAGCATT against PRMT7 | inactive: 0.204 |
| UGUUGUACCUCUAAUGUCATT against GPR172B | inactive: 0.184 |
| GCAACUGUAUUGAUAUCAATT against FBLN1 | inactive: 0.518 |
| GGACGCAGGUUUAACUUCUTT against PARL | inactive: -0.0659 |
| GGAAAUAUGCGGCUACGGATT against NADSYN1 | inactive: 0.217 |
| GCUGGUACAUAUCCUCGUATT against ARHGAP5 | inactive: -0.359 |
| GCAACUUGUGAAUCUAGGATT against VCAM1 | inactive: 0.19 |
| CUGACGCAGAUGAACCGAATT against DSG1 | inactive: 0.187 |
| GGAAAGAACAUCAAGAUUATT against PKM2 | inactive: -0.0312 |
| GGACAUACGCUGACAACCATT against PLCE1 | inactive: 0.597 |
| CCUUGUUUAUCAUAAGGGATT against ZNF613 | inactive: -0.189 |
| AGAUUCUGGUGGAACUGGATT against ZMYND17 | inactive: -0.00314 |
| ACGUGAACCUGCAGCAGAATT against HOXC13 | inactive: -0.318 |
| GUCUGAAUGGUAUGAGUUATT against SPAG16 | inactive: -0.0252 |
| CGACAAUGCGGUCAACCUUTT against CD28 | inactive: -0.993 |
| GCAAUGAGAGAAUACUAUATT against SMPDL3A | inactive: 0.49 |
